Results deposited as PubChem BioAssay AID1159584 (Peter MacCallum Cancer Centre, 2016)

- Aim: 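Knock-downs that harm CDH1-null cells more than parental MCF10A cells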 (primary screen)
- Cells: human MCF10A breast epithelial cells, parental and CDH1-null
- Knock-down reagent: siRNA against human genes
- Measurement: 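Cell viability by CellTiter-Glo ATP luminescence, each line scaled to the mean of mock wells across plates, then CDH1-null over parental ratio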
- Direction: CDH1-null / parental viability ratio: higher = CDH1-null cells survive relatively better than parental; CDH1-null viability vs mock: higher = more viable CDH1-null cells
The deposit covers about 18,000 reagents; this is an unselected part. Further read-outs or replicates are left out here. No sequences are given here. The record does not give: the amount of reagent, the time to read-out.

| gene | CDH1-null / parental viability ratio | CDH1-null viability vs mock (fraction of mock) |
| --- | --- | --- |
| OR3A4P | 1.2 | 0.91 |
| ZBTB5 | 1.19 | 0.86 |
| NAT2 | 0.96 | 1 |
| POPDC2 | 1.02 | 0.54 |
| APOL5 | 1.09 | 1.1 |
| OR8H3 | 0.89 | 0.68 |
| SCN1B | 1.42 | 0.78 |
| SHARPIN | 1.1 | 0.86 |
| MMP25 | 1.3 | 0.26 |
| CNPPD1 | 0.86 | 0.57 |
| BZW1 | 0.74 | 0.64 |
| DYM | 0.82 | 0.98 |
| KRTAP10-5 | 0.98 | 0.89 |
| TMEM120A | 1.21 | 1.04 |
| PCSK6 | 1.22 | 0.98 |
| SERTAD3 | 1.54 | 0.74 |
| ELFN2 | 0.92 | 0.66 |
| ATG9B | 1.05 | 0.9 |
| MBD3 | 1.19 | 0.74 |
| IRF4 | 1.06 | 0.9 |
| ELOC | 1.04 | 1.02 |
| SLC25A41 | 0.94 | 0.66 |
| FKBPL | 0.8 | 0.64 |
| CDK1 | 1.01 | 0.8 |
| ABTB1 | 1.05 | 0.9 |
| AGPS | 0.76 | 0.72 |
| SOST | 0.98 | 0.86 |
| KRTAP23-1 | 1.05 | 0.88 |
| TRPC1 | 0.98 | 0.63 |
| CD63 | 0.83 | 0.72 |
| STMN3 | 1.03 | 0.79 |
| ESYT3 | 1.08 | 0.56 |
| SIKE1 | 1.15 | 0.6 |
| ZNF346 | 1.08 | 1.18 |
| ACSF2 | 0.96 | 0.72 |
| CLIC4 | 1.3 | 0.78 |
| C20orf141 | 1.33 | 0.93 |
| MMP8 | 1.21 | 0.94 |
| ZNG1A | 0.99 | 0.89 |
| PPIA | 1.03 | 0.72 |
| SOCS6 | 1.04 | 0.8 |
| DCAF10 | 0.89 | 0.76 |
| TMEM81 | 1.11 | 1.09 |
| ENC1 | 0.8 | 0.78 |
| PTX4 | 1.1 | 0.75 |
| OR6C68 | 1.21 | 0.92 |
| CDK11A | 1.03 | 0.38 |
| CLDND1 | 1.21 | 0.58 |
| ZNF28 | 1.17 | 0.82 |
| FAM221B | 1.51 | 0.71 |
| CYP19A1 | 1.01 | 0.98 |
| OR4L1 | 1.45 | 0.64 |
| UGT1A7 | 1.42 | 0.74 |
| CNIH4 | 0.97 | 0.7 |
| NNAT | 0.74 | 0.46 |
| PATE1 | 1.24 | 1.02 |
| HCP5 | 1.21 | 0.94 |
| PMPCA | 1.11 | 0.89 |
| BPIFC | 0.98 | 0.51 |
| DDHD1 | 0.94 | 0.77 |
| RPL34 | 1.44 | 0.46 |
| SASH3 | 1.25 | 0.99 |
| SALL2 | 0.85 | 0.5 |
| ZNF93 | 0.87 | 0.7 |
| RGL4 | 1.28 | 0.97 |
| CFHR1 | 0.98 | 0.92 |
| NEUROD1 | 1.1 | 1 |
| BRS3 | 1.53 | 0.84 |

Reformatted: results already given.
{"gene": "DDHD1", "CDH1-null / parental viability ratio": 0.94, "CDH1-null viability vs mock (fraction of mock)": 0.77}
{"gene": "RPL34", "CDH1-null / parental viability ratio": 1.44, "CDH1-null viability vs mock (fraction of mock)": 0.46}
{"gene": "SASH3", "CDH1-null / parental viability ratio": 1.25, "CDH1-null viability vs mock (fraction of mock)": 0.99}
{"gene": "SALL2", "CDH1-null / parental viability ratio": 0.85, "CDH1-null viability vs mock (fraction of mock)": 0.5}
{"gene": "ZNF93", "CDH1-null / parental viability ratio": 0.87, "CDH1-null viability vs mock (fraction of mock)": 0.7}
